In PubChem BioAssay AID1469 (National Center for Advancing Translational Sciences (NCATS), 2008):
The campaign covered roughly 280,000 compounds. About 180 (0.064%) were called active. The shares of active, inactive and inconclusive entries below differ from those in the screen. Calls follow the shape of the dose curve; as a rule, active = well fitted inhibition curve with a large enough effect; inconclusive = small, poorly fitted or top-dose-only effect, or effect the other way; inactive = flat fitted curve, though single readings scatter. Where the call is inconclusive, the potency comes from a doubtful curve fit.

Chains of the proteins cited; added tags and fusions are not shown. Lines headed by an entry give the natural chain unless they say otherwise; changes in a name come on top.
UniProt P10828: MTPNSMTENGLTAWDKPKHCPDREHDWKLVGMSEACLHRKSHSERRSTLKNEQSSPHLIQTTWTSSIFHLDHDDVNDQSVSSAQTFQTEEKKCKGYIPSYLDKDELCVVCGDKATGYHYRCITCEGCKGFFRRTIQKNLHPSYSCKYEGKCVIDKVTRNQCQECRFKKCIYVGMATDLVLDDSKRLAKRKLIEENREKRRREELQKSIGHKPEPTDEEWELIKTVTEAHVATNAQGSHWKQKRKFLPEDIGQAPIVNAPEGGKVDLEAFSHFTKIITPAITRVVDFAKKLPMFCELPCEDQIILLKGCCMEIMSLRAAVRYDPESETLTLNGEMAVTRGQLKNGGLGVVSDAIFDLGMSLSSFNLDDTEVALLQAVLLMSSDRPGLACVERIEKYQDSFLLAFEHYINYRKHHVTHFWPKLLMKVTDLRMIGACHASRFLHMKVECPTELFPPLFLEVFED

Target: Thyroid hormone receptor beta (Homo sapiens) (UniProt P10828)
Assay: qHTS for Inhibitors of the Interaction of Thyroid Hormone Receptor and Steroid Receptor Coregulator 2; also: nearly all actives have a fitted effect of over 50% in size;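 as to activity change, negative = inhibition: plate controls were bound peptide for no effect and peptide without receptor for full effect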
Conditions: TRbeta-SRC2 peptide binding, fluorescence polarization, receptor liganded with 1 µM T3; series mostly up to 106 µM; activity change, negative = inhibition: at the top concentration
How it was run: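 Read-out is fluorescence polarization (555 nm excitation, 632 nm emission) of a Texas Red SRC2 coactivator peptide; loss of signal reflects blocked binding to human TRb ligand-binding domain in the presence of 1 uM T3.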
Potency is read from the fitted curve at half-maximal effect.

Structure (SMILES) | Potency | activity change, negative = inhibition
CCc1nc2sc3ccccc3c(=O)c2c(=O)n1Cc1ccco1 | inconclusive: 70.8 µM [activator, single point] | –
COc1ccccc1NC(=O)N1CC(=O)Nc2sc3c(c2C1c1ccccc1)CCCC3 (stereo not given) | inconclusive: 70.8 µM [inhibitor, single point] | –
Cc1ccc(C2CC(=O)Oc3cc(O)ccc32)cc1 (stereo not given) | inconclusive: 100 µM [inhibitor, partial curve] | –
Cc1[nH][nH]c(=O)c1C(c1ccc(-c2ccc(F)cc2)o1)c1c(C)[nH][nH]c1=O | inconclusive: 44.7 µM [inhibitor, partial curve] | –
CC1(C)Cc2c(c(N3CCOCC3)nc3sc(C(N)=O)c(N)c23)CO1 | – | inactive: -4.09%
CCOC(=O)C1CCCN(C(=O)c2ccc3c(=O)n(CCOC)c(=S)[nH]c3c2)C1 (stereo not given) | inconclusive: 39.8 µM [inhibitor, partial curve] | –
CCCCC/C=C\C/C=C\C/C=C\C/C=C\CCCC(=O)C(F)(F)F | – | inactive: 1.4%
O=C(CN1CCN(CC(=O)Nc2ccccc2F)CC1)Nc1ccc(Cl)c(C(F)(F)F)c1 | – | inactive: 1.01%
O=c1nc2cccc3c2=c(/c1=C(\O)c1ccccc1)c1ccccc1c3=O | inconclusive: 35.5 µM [inhibitor, single point] | –
CCOC(=O)c1c(NC(=O)c2ccco2)n(C2CCCCC2)c2nc3ccccc3nc12 | inconclusive: 17.8 µM [inhibitor, full curve] | –
CCN(Cc1ccccc1)S(=O)(=O)c1ccc2[nH]c3c(c2c1)CCCCC3 | – | inactive: 1.01%
Cc1nn2c(-c3cccc(NC(=O)c4ccco4)c3)nnc2c2ccccc12 | inconclusive: 100 µM [inhibitor, partial curve, poor fit] | –
CCc1nnc(SC(CC)C(=O)NCCOC)c2cc3occc3n12 (stereo not given) | – | inactive: -3.54%
CCN1CCCC1CNC(=O)C(NC(=O)C1CCC(C)CC1)C(C)C (stereo not given) | – | inactive: -2.95%
COc1cccc(NC(=O)Cn2nnc(-c3nc(-c4ccccc4)no3)c2N)c1 | inconclusive: 31.6 µM [activator, full curve] | –
COC(=O)CCC(=O)OC1(C)C(=O)C2=COC(c3ccc(OC)cc3)=CC2=C(Br)C1=O (stereo not given) | inactive | –
CC1CC(C)CN(C(=O)COC(=O)CNS(=O)(=O)/C=C/c2ccccc2)C1 (stereo not given) | – | inactive: -7.74%
Cc1nc(Nc2ccc(Cl)cc2)cc(-c2ccccc2)n1 | – | inactive: 2.02%
Nc1ccc(O)cc1C(=O)OCC(=O)C12CC3CC(CC(C3)C1)C2 | inconclusive: 79.4 µM [inhibitor, single point] | –
COc1cccc2c1C(=O)c1c(O)c3c(c(O)c1C2=O)C[C@](O)(C(=O)CO)C[C@H]3O[C@@H]1C[C@H](N)[C@H](O)[C@H](C)O1 | active: 14.1 µM | –

Single records (already shown). Order of values: Potency | activity change, negative = inhibition
`CCc1nc2sc3ccccc3c(=O)c2c(=O)n1Cc1ccco1` is listed with inconclusive: 70.8 µM [activator, single point] | –
`O=c1nc2cccc3c2=c(/c1=C(\O)c1ccccc1)c1ccccc1c3=O` is listed with inconclusive: 35.5 µM [inhibitor, single point] | –
